# Percent effect of library compounds

Protein sequences, listed by entry. Tags and fused reporters are not part of them.
UniProt P9WFT3, whole entry: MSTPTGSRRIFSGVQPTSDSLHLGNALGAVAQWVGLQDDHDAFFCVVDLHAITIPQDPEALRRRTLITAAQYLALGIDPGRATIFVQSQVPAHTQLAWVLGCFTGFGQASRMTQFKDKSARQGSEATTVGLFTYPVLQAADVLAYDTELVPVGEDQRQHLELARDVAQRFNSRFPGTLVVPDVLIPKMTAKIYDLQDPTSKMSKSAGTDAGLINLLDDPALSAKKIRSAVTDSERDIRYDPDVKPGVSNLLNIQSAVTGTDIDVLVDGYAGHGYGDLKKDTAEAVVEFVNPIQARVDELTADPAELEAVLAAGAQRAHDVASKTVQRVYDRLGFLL

The values are deposited in ChEMBL (CHEMBL3988442, “University of Dundee, Small-Polar-MMV Screening Library” (2021)).

A: 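Cell assay of Leishmania donovani living inside macrophages; the read-out is not stated. Concentration: 30 µM. The record gives no direction; compounds that gave an IC50 in retests scored well above the rest, so higher reads as stronger inhibition. Of about 69,000 compounds tested this way, about 1,000 (1.5%) reached 50% or more in at least one test.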
B: 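Enzyme assay of tryptophanyl-tRNA synthetase; the read-out is not stated. Target: Tryptophan-tRNA ligase, Mycobacterium tuberculosis (UniProt P9WFT3). Tested at 10 µM. Direction is not recorded; retested compounds ran higher, which suggests that high means inhibition. About 65,000 compounds were tested under these conditions; 0.098% (about 64) showed 50% or more at least once.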
C: 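Whole-parasite assay of Trypanosoma brucei over 72 hours; the read-out is not stated. Tested at 30 µM. Direction is inferred from retests: higher values go with stronger inhibition. Values scatter widely below zero; nearly all retest evidence comes from the higher of the two concentrations used. Of about 64,000 compounds tested this way, about 940 (1.5%) reached 50% or more in at least one test.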

Results are given as percent effect.
How 0% and 100% were set is not recorded. Most values in the screen are low, and negative values occur.
This is an unselected part of the compounds tested.
Two or more numbers in one place are separate tests of the same structure; such repeats can differ widely.
A dash means the value is not listed here; it may have been measured.

| # | Compound | A | B | C |
|---|---|---|---|---|
| 1 | `Cc1cc(CN(C)C(=O)c2ccc(OC(C)C)nc2)no1` | -7.692 | 26.88 | 3.42 |
| 2 | `CC(C)Sc1ccc(C(C)NC(=O)Cn2cccnc2=O)cc1` (configuration not stated) | 22.97 | -5.57 | -17.92 |
| 3 | `CC(NC(=O)COc1ccc(Cl)cc1Cl)c1nncn1C(C)C` (configuration not stated) | -15.61 | -4.197 | - |
| 4 | `CCN(CC)S(=O)(=O)N1CCCC1c1nnc2n1CCN(C)CC2` (configuration not stated) | -11.75 | -1.006 | -8.331 |
| 5 | `Cc1noc(C)c1C(=O)NCC1CCCCN1Cc1ccccc1` (configuration not stated) | 12.12 | -0.1009 | -61.38 |
| 6 | `O=C(O)C(F)(F)F.c1cnc(N2CCCC3(CCN(CC4CCOC4)CC3)C2)nc1` (configuration not stated) | 29.72 | - | 56.13 |
| 7 | `Cc1nsc(C(=O)NCCc2cccs2)n1` | 18.51 | 2.949 | -0.6371 |
| 8 | `CCc1nc(C)ncc1C(=O)N1CC(=O)N(C)c2ccccc21` | 9.909 | 0.4442 | -12.59 |
| 9 | `CC(=O)N1CCCC1C(=O)N1CCC(=Cc2cccc(F)c2)CC1` (configuration not stated) | 10.71 | 0.3458 | -18.49 |
| 10 | `O=C(O)C(F)(F)F.O=C(O)C(F)(F)F.O=C(O)C(F)(F)F.[H][C@@]12C[C@@H](Oc3cncnc3)CN1CCN(Cc1cccnc1)C2` | 42.3 | - | -85.06 |
| 11 | `O=C(O)C(F)(F)F.[H][C@]12C[C@@H](C(=O)NCCc3cccs3)CO[C@@]1([H])CCN(C1CCC1)C2` | 6.231 | - | -77.19 |
| 12 | `c1cc(-c2cn[nH]c2)ccc1CN1CCNCC1` | 30.13 | 3.173 | -41.83 |
| 13 | `O=C(c1ccc2nncn2c1)N1CCCC(n2ccnc2)C1` (configuration not stated) | 24.43 | 2.142 | -30.31 |
| 14 | `O=S(=O)(C1CC1)N1CCOCC2(CN(c3ncccn3)CCO2)C1` (configuration not stated) | 10.28 | -5.951 | -4.859 |
| 15 | `COc1cnc(N2C[C@@H](CN3CCOCC3)C[C@H](CO)C2)nc1` | -9.804 | -2.379 | -2.939 |
| 16 | `Cc1cccc2nc(-c3nc4c([nH]3)CCCNC4=O)cn12` | 27.85 | -5.946 | 66.46 |
| 17 | `CCc1ccc(CN2CCNC(C(=O)N3CCN(C)CC3)C2)nc1` (configuration not stated) | 23.27 | -2.888 | -8.195 |
| 18 | `CCc1n[nH]c(C2CN(C(=O)c3cc(C4CC4)on3)CCO2)n1` (configuration not stated) | 6.583 | -6.616 | 0.3323 |
| 19 | `O=C(Nc1cccs1)N(CCO)CCOCC(F)(F)F` | 16.9 | 5.705 | -14.73 |
| 20 | `CN1CCC2(CC1)Cc1ccccc1CN(C(=O)CN)C2` | -6.713 | 6.137 | - |
| 21 | `Cc1occc1C(=O)N1CCC2(CCN(Cc3ccccn3)C2=O)C1.O=C(O)C(F)(F)F` (configuration not stated) | 1.31 | - | -18.48 |
| 22 | `O=C(NC1CCC1)c1n[nH]c2c1CNCC2` | -10.32 | -1.051 | -18.98 |
| 23 | `CN1CCN(c2ncc(-c3cnccn3)c([C@H]3CCCO3)n2)CC1` | -4.431 | - | -16.33 |
| 24 | `CN(C)Cc1cc(=O)n2c(n1)CN(C(=O)Cc1cccs1)CCC2.O=C(O)C(F)(F)F` | 6.233 | - | -5.972 |
| 25 | `O=C(C1CCCC1)N1CC2(CCNC2)OCc2ccccc21` (configuration not stated) | 12.94 | -8.038 | - |
| 26 | `Cc1nn(C)cc1-c1ccnc(N2CCN(c3cnccn3)CC2)n1` | -24.98 | -4.931 | -33.99 |
| 27 | `Cc1cc(C[S+]([O-])Cc2ccccc2C)no1` (configuration not stated) | 1.466 | 0 | -57.36 |
| 28 | `CCn1ncc(S(=O)(=O)NC2(CN3CCOCC3)CCCCC2)c1C` | -1.885 | -5.49 | -50.04 |
| 29 | `COc1cccc(C(=O)N2CCN(CC(O)c3ccccc3)CC2)c1` (configuration not stated) | -2.836 | -2.773 | - |
| 30 | `COC(=O)CCC(=O)N1CCc2nc(C(=O)N3CCOCC3)sc2CC1` | 20.01 | -2.697 | -53.24 |
| 31 | `Cc1n[nH]c(C)c1C1CCCN1C(=O)NCCSC(C)(C)C` (configuration not stated) | 11.2 | 1.069 | 27.6 |
| 32 | `COc1ccc(CN2C[C@@H](N(C)Cc3ccco3)[C@H]3OCCC[C@H]32)cc1` | - | 1.057 | - |
| 33 | `O=C(Nc1ccccc1)c1n[nH]c(-n2cnnc2)n1` | 15.16 | 3.368 | -8.648 |
| 34 | `CC(=O)N1CCC(NC(=O)Cc2csc(C(C)(C)C)n2)CC1` | 26.31 | -1.156 | -5.92 |
| 35 | `CN(C(=O)C1CC(=O)N(CCc2ccccc2)C1)c1nccs1` (configuration not stated) | 17.67 | 3.192 | -30.06 |
| 36 | `CN(C)c1ccccc1C(=O)N1C[C@@H](CN2CCOCC2)[C@@H](CO)C1` | 38.43 | 0.5848 | 39.46 |
| 37 | `CCCc1cc(NCCn2cccn2)n2nccc2n1` | 22.7 | -1.644 | -33.47 |
| 38 | `Cc1cccc(C(C(=O)N(C)Cc2ccon2)N(C)C)c1` (configuration not stated) | -2.231 | -5.901 | -39.16 |
| 39 | `O=C(NC1CC1)[C@@H]1CCO[C@@H]2CCN(Cc3ccsc3)C[C@H]21` | - | -2.354 | - |
| 40 | `Cc1nccc(CN2CC[C@@]3(CCCN3Cc3ccccc3)[C@@H](O)C2)n1` | 14.2 and 10.36 | - | 12.32 |
| 41 | `N#Cc1cc(Cl)ccc1N1CCOC(C(N)=O)C1` (configuration not stated) | 10.35 | 9.788 | -30.15 |
| 42 | `Cc1ncsc1CN1CC[C@H]2OCC[C@@]2(C(=O)NCC2CC2)C1` | - | 9.482 | - |
| 43 | `COc1ccccc1C(=O)N1CCC(Oc2ccc(C#N)cn2)CC1` | 4.584 | 6.255 | 5.27 |
| 44 | `CS(=O)(=O)CCC(=O)Nc1cc(F)ccc1OCC1CCCO1` (configuration not stated) | -4.326 | 7.977 | - |
| 45 | `Cc1ccc(C(=O)CN2C(=O)c3ccccc3CS2(=O)=O)c(C)c1` | 23.96 | -0.2646 | -25.35 |
| 46 | `CCN1C(=O)[C@]2(CC[C@@H]3CN(C(=O)Nc4ccc(F)cc4)C[C@@H]32)N=C1C` | - | 3.856 | - |
| 47 | `CC(C)(C)c1ncc2c(n1)CN(c1cc(NCCO)nc(N)n1)C2` | 34.79 | 1.224 | -119.6 |
| 48 | `O=C1N(Cc2ccccn2)C[C@H]2CN(C3CCC3)CCN12` | - | 0.6865 | - |

Once more, the final 5:

Compound	A	B	C
CS(=O)(=O)CCC(=O)Nc1cc(F)ccc1OCC1CCCO1 (configuration not stated)	-4.326	7.977	-
Cc1ccc(C(=O)CN2C(=O)c3ccccc3CS2(=O)=O)c(C)c1	23.96	-0.2646	-25.35
CCN1C(=O)[C@]2(CC[C@@H]3CN(C(=O)Nc4ccc(F)cc4)C[C@@H]32)N=C1C	-	3.856	-
CC(C)(C)c1ncc2c(n1)CN(c1cc(NCCO)nc(N)n1)C2	34.79	1.224	-119.6
O=C1N(Cc2ccccn2)C[C@H]2CN(C3CCC3)CCN12	-	0.6865	-